From paper PMC4763541, “Pitchfork and Gprasp2 Target Smoothened to the Primary Cilium for Hedgehog Pathway Activation” (PLoS ONE, 2016) come the findings set out here.

By UniProt entry, the sequences of proteins in these tests, tags left out. Residues count along the entry.
UniProt P63208: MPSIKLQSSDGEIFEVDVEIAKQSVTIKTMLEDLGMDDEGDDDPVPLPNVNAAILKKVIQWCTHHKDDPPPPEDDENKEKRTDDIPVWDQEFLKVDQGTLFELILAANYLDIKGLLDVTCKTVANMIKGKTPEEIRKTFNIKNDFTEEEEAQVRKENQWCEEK
UniProt Q99523, residues 78-831: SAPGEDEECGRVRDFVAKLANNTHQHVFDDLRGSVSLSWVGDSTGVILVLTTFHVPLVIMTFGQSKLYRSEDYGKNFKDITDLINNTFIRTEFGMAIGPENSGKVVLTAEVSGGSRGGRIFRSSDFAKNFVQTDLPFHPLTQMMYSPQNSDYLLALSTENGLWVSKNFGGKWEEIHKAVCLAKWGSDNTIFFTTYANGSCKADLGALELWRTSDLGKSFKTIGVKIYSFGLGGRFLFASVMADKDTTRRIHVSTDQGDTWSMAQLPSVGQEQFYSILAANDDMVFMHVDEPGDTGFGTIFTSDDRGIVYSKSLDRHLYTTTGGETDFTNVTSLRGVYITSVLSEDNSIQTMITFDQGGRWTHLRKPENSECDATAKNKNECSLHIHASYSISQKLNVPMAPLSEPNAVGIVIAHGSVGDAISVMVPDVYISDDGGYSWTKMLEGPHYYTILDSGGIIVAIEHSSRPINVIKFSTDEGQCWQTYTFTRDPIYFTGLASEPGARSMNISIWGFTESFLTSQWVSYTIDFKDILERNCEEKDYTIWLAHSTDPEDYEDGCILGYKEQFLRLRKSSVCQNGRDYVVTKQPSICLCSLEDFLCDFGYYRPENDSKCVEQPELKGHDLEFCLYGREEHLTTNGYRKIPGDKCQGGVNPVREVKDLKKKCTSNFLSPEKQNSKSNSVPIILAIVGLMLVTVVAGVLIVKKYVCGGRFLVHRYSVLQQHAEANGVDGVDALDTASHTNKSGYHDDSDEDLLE
UniProt P18085: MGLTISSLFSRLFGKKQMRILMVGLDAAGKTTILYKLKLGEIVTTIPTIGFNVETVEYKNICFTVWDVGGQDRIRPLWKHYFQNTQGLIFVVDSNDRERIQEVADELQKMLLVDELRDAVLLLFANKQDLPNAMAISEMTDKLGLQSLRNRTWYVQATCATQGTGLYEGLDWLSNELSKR

This assay addresses T1, Pitchfork (PIFO), SF-TAP-tagged (UniProt Q8TCI5).
T1 sequence: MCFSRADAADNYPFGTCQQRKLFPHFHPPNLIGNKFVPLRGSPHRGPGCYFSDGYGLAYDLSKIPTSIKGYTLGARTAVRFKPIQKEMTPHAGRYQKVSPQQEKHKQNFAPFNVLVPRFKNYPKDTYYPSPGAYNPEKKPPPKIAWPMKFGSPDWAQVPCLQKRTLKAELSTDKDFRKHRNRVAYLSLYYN
Nature of the assay: affinity purification with mass spectrometry; SILAC; SF-TAP-tagged PIFO against SF-TAP control in HEK293T; one-step Strep purification on Strep-Tactin-Superflow beads, lysis in 0.5% NP-40 in TBS (30 mM Tris-HCl pH 7.4, 150 mM NaCl), LC-MS/MS, significance B p<0.05.

These are yes or no findings as the source states them, for the method shown. In cells and extracts the contact can be indirect. Here binding means that the protein was enriched with, or labelled near, the bait; the list need not be complete. Where a sequence is shown, tags or fusion partners need not be part of it.

Skp1 (from UniProt P63208 1-163): the binding entry is recorded as “binds”.
As to “Sortilin1 (SORT1) (from UniProt Q99523 78-831)”, the binding result is recorded as “binds”.
With “small GTPase ADP-ribosylation factor 4 (ARF4) (from UniProt P18085 1-180)” the entry was “binds”.

B1: endogenous GPRASP2 of HEK293T cells (G protein-coupled receptor trafficking protein) (protein, UniProt Q96D09 1-838)
chain: MTGAEIEPSAQAKPEKKAGEEVIAGPERENDVPLVVRPKVRTQATTGARPKTETKSVPAARPKTEAQAMSGARPKTEVQVMGGARPKTEAQGITGARPKTDARAVGGARSKTDAKAIPGARPKDEAQAWAQSEFGTEAVSQAEGVSQTNAVAWPLATAESGSVTKSKGLSMDRELVNVDAETFPGTQGQKGIQPWFGPGEETNMGSWCYSRPRAREEASNESGFWSADETSTASSFWTGEETSVRSWPREESNTRSRHRAKHQTNPRSRPRSKQEAYVDSWSGSEDEASNPFSFWVGENTNNLFRPRVREEANIRSKLRTNREDCFESESEDEFYKQSWVLPGEEANSRFRHRDKEDPNTALKLRAQKDVDSDRVKQEPRFEEEVIIGSWFWAEKEASLEGGASAICESEPGTEEGAIGGSAYWAEEKSSLGAVAREEAKPESEEEAIFGSWFWDRDEACFDLNPCPVYKVSDRFRDAAEELNASSRPQTWDEVTVEFKPGLFHGVGFRSTSPFGIPEEASEMLEAKPKNLELSPEGEEQESLLQPDQPSPEFTFQYDPSYRSVREIREHLRARESAESESWSCSCIQCELKIGSEEFEEFLLLMDKIRDPFIHEISKIAMGMRSASQFTRDFIRDSGVVSLIETLLNYPSSRVRTSFLENMIHMAPPYPNLNMIETFICQVCEETLAHSVDSLEQLTGIRMLRHLTMTIDYHTLIANYMSGFLSLLTTANARTKFHVLKMLLNLSENPAVAKKLFSAKALSIFVGLFNIEETNDNIQIVIKMFQNISNIIKSGKMSLIDDDFSLEPLISAFREFEELAKQLQAQIDNQNDPEVGQQS
In the case of B1, the binding entry is reported as “binds”.
